{"sequences": {"note": "Amino acid sequences for entries named in this document (tags omitted).", "UniProt Q0JBA9, entry or part of it": "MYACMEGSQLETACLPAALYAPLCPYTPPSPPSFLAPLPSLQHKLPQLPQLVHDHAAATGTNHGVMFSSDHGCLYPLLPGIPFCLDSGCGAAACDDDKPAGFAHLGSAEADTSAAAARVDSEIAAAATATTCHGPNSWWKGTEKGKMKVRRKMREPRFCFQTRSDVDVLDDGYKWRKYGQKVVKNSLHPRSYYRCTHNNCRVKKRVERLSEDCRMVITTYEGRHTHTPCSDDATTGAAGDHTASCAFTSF"}, "source": "paper PMC7819943", "about": "“Rice protein-binding microarrays: a tool to detect cis-acting elements near promoter regions in rice”", "note": "This is one part of the list.", "data": [{"target": "OsWRKY34 (Oryza sativa, UniProt Q0JBA9 1-250)", "assay": "protein-binding microarray (RPBM); PBS, 2% BSA, 51.3 ng/ul salmon testes DNA, 50 uM zinc acetate, 200 nM TF, 25 C, 1 h; high values mean tight binding", "conditions": "protein: recombinant; tags: N-terminal polyhistidine and DsRed monomer fusion (pET32a); label: CyDye5-dUTP incorporated in the synthesized complementary strand; 3' TTTTT single-stranded linker to array surface; dsDNA, one strand shown", "method_in_brief": "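The binding signal for each feature is its fluorescence intensity in arbitrary units. An Axon 4000B scanner was used to read a custom Agilent array that had been made double-stranded with Cy5-dUTP primer extension, blocked with 2% BSA, incubated at 25 °C for 1 h with 200 nM protein in PBS, 2% BSA, salmon testes DNA and 50 µM zinc acetate, and washed. The protein was an N-terminal polyhistidine–DsRed transcription factor fusion from E. coli BL21-CodonPlus, purified on Ni–NTA.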", "values": [{"sequence": "CGGTAGGGCGAGCACGGGTGGGGTTGGTGGTGATTTTTTTCGGAGTCACCTAGTGCAG", "binding signal": "20800 fluorescence intensity (a.u.)"}, {"sequence": "GTGTCCATCAATCCATCCATCCATGCTTATTTTCTCAAGACGGAGTCACCTAGTGCAG", "binding signal": "8580 fluorescence intensity (a.u.)"}, {"sequence": "TTTCGTTGTCCCTCGTCATTGCTAGACCCAACCGCCGCCACGGAGTCACCTAGTGCAG", "binding signal": "8350 fluorescence intensity (a.u.)"}, {"sequence": "TCACCGCGTACGTCACATTTACAGCTTTTGGTCGTCTATACGGAGTCACCTAGTGCAG", "binding signal": "10200 fluorescence intensity (a.u.)"}, {"sequence": "GTCGTCGCCTGCCTCTTCGTCGCCGCTCTCGTCTCCGCTCCGGAGTCACCTAGTGCAG", "binding signal": "9880 fluorescence intensity (a.u.)"}, {"sequence": "CCCTTAGCTTCTTTGTGTGGATAGATATATGACCGTTTTACGGAGTCACCTAGTGCAG", "binding signal": "11100 fluorescence intensity (a.u.)"}, {"sequence": "TTAAGTTGAAATTTTTTCCGTTGGTTTTTCATATAGTATTCGGAGTCACCTAGTGCAG", "binding signal": "8810 fluorescence intensity (a.u.)"}, {"sequence": "CAAGACATACACACTCTTACTTTCTCTCTCGTCCTACTAACGGAGTCACCTAGTGCAG", "binding signal": "8380 fluorescence intensity (a.u.)"}, {"sequence": "ATCACGATCACAACCAAAATTTGTTGTTTTCTTCACGATTCGGAGTCACCTAGTGCAG", "binding signal": "10900 fluorescence intensity (a.u.)"}, {"sequence": "TCTACTCTCTCTCTCTCTCTTTTCCTTTTCATAACTGTCTCGGAGTCACCTAGTGCAG", "binding signal": "9070 fluorescence intensity (a.u.)"}, {"sequence": "GCCGTCGACCCGTCGTCGTACTCCCGCCCACCCAGCGCCGCGGAGTCACCTAGTGCAG", "binding signal": "8100 fluorescence intensity (a.u.)"}, {"sequence": "AGCACACAACACATATGTATACTTCCTCTCTGCTTTCTCCCGGAGTCACCTAGTGCAG", "binding signal": "8900 fluorescence intensity (a.u.)"}, {"sequence": "ACATTTCCCATTTCCTTCGTGCAATCCAGATGTGCCTCCACGGAGTCACCTAGTGCAG", "binding signal": "11200 fluorescence intensity (a.u.)"}, {"sequence": "AGTGAAGGGTCTTTTTTTTATGTATTGATATGTGTGGGATCGGAGTCACCTAGTGCAG", "binding signal": "12200 fluorescence intensity (a.u.)"}, {"sequence": "TTTCATTCCAACTCTTTTTTTTCCTGTGTTACTTGTATTTCGGAGTCACCTAGTGCAG", "binding signal": "9620 fluorescence intensity (a.u.)"}, {"sequence": "CCCGTTTTGTTTTTTTTTAAAATTTAATGCCACGTAAGCGCGGAGTCACCTAGTGCAG", "binding signal": "9900 fluorescence intensity (a.u.)"}, {"sequence": "AAGTCATTCTTGCTTATCAATGCACCTCACATAAGGCACTCGGAGTCACCTAGTGCAG", "binding signal": "8030 fluorescence intensity (a.u.)"}, {"sequence": "AGAATACACTCTCCAGTAACCTCGTCACATTCAGTTCGAACGGAGTCACCTAGTGCAG", "binding signal": "8160 fluorescence intensity (a.u.)"}, {"sequence": "CTCGCGTTTTATCCGTTTCGAACTGCTCGTGTCGCGCCGCCGGAGTCACCTAGTGCAG", "binding signal": "8920 fluorescence intensity (a.u.)"}, {"sequence": "GCGTACTAAAAAGTCAACGGTGTCAACCATTTTAAAATGGCGGAGTCACCTAGTGCAG", "binding signal": "12500 fluorescence intensity (a.u.)"}, {"sequence": "GGGTTTGGGGTTGCGATTGGGATTGGTAGGGAGGCTGATGCGGAGTCACCTAGTGCAG", "binding signal": "8280 fluorescence intensity (a.u.)"}, {"sequence": "CAGCTATCGTTATTCTGAAGATCCACCAAGCACAATCTTACGGAGTCACCTAGTGCAG", "binding signal": "8280 fluorescence intensity (a.u.)"}, {"sequence": "GTGCCCGTGATGCTATTGTTTCATATCTGTTTCCCAATAGCGGAGTCACCTAGTGCAG", "binding signal": "9850 fluorescence intensity (a.u.)"}, {"sequence": "TTGCCAGCTTGTCTCTCTGATTTTATTATCCTTTTCTTTTCGGAGTCACCTAGTGCAG", "binding signal": "14200 fluorescence intensity (a.u.)"}, {"sequence": "GCTCCTGTGGATGTAACGCCGCAGCTCTCTTGTGTACCACCGGAGTCACCTAGTGCAG", "binding signal": "9120 fluorescence intensity (a.u.)"}, {"sequence": "TGCAGGGGAAGAGGCAAGGAGGGCAAGACCGGGGCGCAGTCGGAGTCACCTAGTGCAG", "binding signal": "8490 fluorescence intensity (a.u.)"}, {"sequence": "AGTTTGATTTACAAGTGCTTTCATATGTATGTTTGTTTTACGGAGTCACCTAGTGCAG", "binding signal": "11000 fluorescence intensity (a.u.)"}, {"sequence": "TTCCCGCGCCACGGCGCTGGACGCGCTCGTTGACTCCGTCCGGAGTCACCTAGTGCAG", "binding signal": "9240 fluorescence intensity (a.u.)"}, {"sequence": "AGATTGATCATTTGCATGTACCACTTCCCTTTTTCTCCCTCGGAGTCACCTAGTGCAG", "binding signal": "9390 fluorescence intensity (a.u.)"}, {"sequence": "CTTAGCTTGTTTTTATCAGTTCTTACCTTTCTTGATTCTCCGGAGTCACCTAGTGCAG", "binding signal": "8070 fluorescence intensity (a.u.)"}, {"sequence": "ATGTAAACTGTGTAATTAATTTTTCTTTTTATCTATATTTCGGAGTCACCTAGTGCAG", "binding signal": "9150 fluorescence intensity (a.u.)"}, {"sequence": "GTACGTCCGTCTTCTTTCGATCCGCCGTGCCTTTTCCTTCCGGAGTCACCTAGTGCAG", "binding signal": "8610 fluorescence intensity (a.u.)"}, {"sequence": "GGGGCGGATCGTGGAGGACGAGCGGTCGCCGGGGCGGCCTCGGAGTCACCTAGTGCAG", "binding signal": "8910 fluorescence intensity (a.u.)"}, {"sequence": "ATTGTTTGTCCCGTCCCTACATCACGCCAAAAGTCACAACCGGAGTCACCTAGTGCAG", "binding signal": "11800 fluorescence intensity (a.u.)"}, {"sequence": "TACAACTCAGCTCATTCCACTTCAAAAGTCTACTACTTTTCGGAGTCACCTAGTGCAG", "binding signal": "9280 fluorescence intensity (a.u.)"}, {"sequence": "CAGGATGAGACCTAAATATTGTTGTGCTGCTTTGGATTATCGGAGTCACCTAGTGCAG", "binding signal": "8420 fluorescence intensity (a.u.)"}, {"sequence": "CTATGGTAGGTAGGGTTTTCGTGTTGCGAGGTTACAGGGGCGGAGTCACCTAGTGCAG", "binding signal": "12200 fluorescence intensity (a.u.)"}, {"sequence": "ATATATATATATATATATATACATACATATACACACACACCGGAGTCACCTAGTGCAG", "binding signal": "8050 fluorescence intensity (a.u.)"}, {"sequence": "GAACCTTATCCGTTTCTGCAACGCTACGCTGTGTTTCTCTCGGAGTCACCTAGTGCAG", "binding signal": "10500 fluorescence intensity (a.u.)"}, {"sequence": "GAGCTATACTATTATTATCTTACTCTAATAGCTATCTACTCGGAGTCACCTAGTGCAG", "binding signal": "8550 fluorescence intensity (a.u.)"}, {"sequence": "TATCCAAAAAAACTCTACTACTTGCCCTCGCTTGCACGTCCGGAGTCACCTAGTGCAG", "binding signal": "8110 fluorescence intensity (a.u.)"}, {"sequence": "TCAAAATGTTTAACGCCGTTGACTTTTTAGCACATTTTTGCGGAGTCACCTAGTGCAG", "binding signal": "33000 fluorescence intensity (a.u.)"}, {"sequence": "AAATTACAGGCTCATCGTTTCGTCTAATTATAAATCATAACGGAGTCACCTAGTGCAG", "binding signal": "8360 fluorescence intensity (a.u.)"}, {"sequence": "TATATGTCACCTCTACTGGATTTGTGTAGTGTATCATATTCGGAGTCACCTAGTGCAG", "binding signal": "9060 fluorescence intensity (a.u.)"}, {"sequence": "GATTCAATCAGACGTTCAGTTTTTCTTCTTTCTTTTTTTTCGGAGTCACCTAGTGCAG", "binding signal": "8170 fluorescence intensity (a.u.)"}, {"sequence": "TTTTACTCTCCTTCTCATCCAAGCCACCACCCGTGAAAATCGGAGTCACCTAGTGCAG", "binding signal": "10100 fluorescence intensity (a.u.)"}, {"sequence": "ACCGTTGACTTTTTAGCACATGATTGATCGTTCGTTTTATCGGAGTCACCTAGTGCAG", "binding signal": "33800 fluorescence intensity (a.u.)"}, {"sequence": "CGGCGGCTACGACCACCGTCTTCCTCATCTCCGGCGTCGCCGGAGTCACCTAGTGCAG", "binding signal": "10300 fluorescence intensity (a.u.)"}, {"sequence": "CCTTCATTTACTTTTGCTTATACTTGGTTTGTCTTTCTAACGGAGTCACCTAGTGCAG", "binding signal": "8240 fluorescence intensity (a.u.)"}, {"sequence": "TCTCCTCGGCATTTCCGATTCTTGACTGGCTTGTTCTCTCCGGAGTCACCTAGTGCAG", "binding signal": "8760 fluorescence intensity (a.u.)"}, {"sequence": "AATACCCAGAATCCACCACATCTCTTTAATAGTACCTACACGGAGTCACCTAGTGCAG", "binding signal": "8020 fluorescence intensity (a.u.)"}, {"sequence": "GATCGGTTGTTCTCTTCTCGCCCATATCTTGCATCTCACACGGAGTCACCTAGTGCAG", "binding signal": "11900 fluorescence intensity (a.u.)"}, {"sequence": "CCGTCCTCCTCCTGCGCCGCCGTCCTCCTCCTGCTGACCCCGGAGTCACCTAGTGCAG", "binding signal": "8090 fluorescence intensity (a.u.)"}, {"sequence": "CAACCTCGCATCCCGACGTTCGTCCACGCAACTGCATGCACGGAGTCACCTAGTGCAG", "binding signal": "8030 fluorescence intensity (a.u.)"}]}]}
